Our source for the log2 fold change values is the supplement of paper PMC12819154, “High-throughput peptide-centric local stability assay extends protein–ligand identification to membrane proteins, tissues and bacteria” (Nature Structural & Molecular Biology, 2025).

Chains of the proteins cited; added tags and fusions are not shown. Lines headed by an entry give the natural chain unless they say otherwise; changes in a name come on top.
UniProt Q9H0H5: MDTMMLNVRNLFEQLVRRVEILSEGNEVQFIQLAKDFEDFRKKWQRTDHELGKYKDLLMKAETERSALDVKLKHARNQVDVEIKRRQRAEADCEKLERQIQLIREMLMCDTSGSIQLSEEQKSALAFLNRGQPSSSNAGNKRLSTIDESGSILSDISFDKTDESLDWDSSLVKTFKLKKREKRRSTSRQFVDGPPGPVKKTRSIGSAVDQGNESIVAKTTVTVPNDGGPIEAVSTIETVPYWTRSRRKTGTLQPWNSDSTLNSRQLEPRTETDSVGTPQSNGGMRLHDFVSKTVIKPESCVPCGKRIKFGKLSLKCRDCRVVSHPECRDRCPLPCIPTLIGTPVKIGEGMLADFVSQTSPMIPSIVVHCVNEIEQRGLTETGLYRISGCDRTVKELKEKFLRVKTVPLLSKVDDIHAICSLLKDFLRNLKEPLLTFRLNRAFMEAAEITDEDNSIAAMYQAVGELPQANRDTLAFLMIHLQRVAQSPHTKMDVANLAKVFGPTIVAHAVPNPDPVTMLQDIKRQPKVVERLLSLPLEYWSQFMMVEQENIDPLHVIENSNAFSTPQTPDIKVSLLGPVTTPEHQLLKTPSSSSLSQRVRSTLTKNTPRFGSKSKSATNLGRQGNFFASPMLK
UniProt Q9BZL4: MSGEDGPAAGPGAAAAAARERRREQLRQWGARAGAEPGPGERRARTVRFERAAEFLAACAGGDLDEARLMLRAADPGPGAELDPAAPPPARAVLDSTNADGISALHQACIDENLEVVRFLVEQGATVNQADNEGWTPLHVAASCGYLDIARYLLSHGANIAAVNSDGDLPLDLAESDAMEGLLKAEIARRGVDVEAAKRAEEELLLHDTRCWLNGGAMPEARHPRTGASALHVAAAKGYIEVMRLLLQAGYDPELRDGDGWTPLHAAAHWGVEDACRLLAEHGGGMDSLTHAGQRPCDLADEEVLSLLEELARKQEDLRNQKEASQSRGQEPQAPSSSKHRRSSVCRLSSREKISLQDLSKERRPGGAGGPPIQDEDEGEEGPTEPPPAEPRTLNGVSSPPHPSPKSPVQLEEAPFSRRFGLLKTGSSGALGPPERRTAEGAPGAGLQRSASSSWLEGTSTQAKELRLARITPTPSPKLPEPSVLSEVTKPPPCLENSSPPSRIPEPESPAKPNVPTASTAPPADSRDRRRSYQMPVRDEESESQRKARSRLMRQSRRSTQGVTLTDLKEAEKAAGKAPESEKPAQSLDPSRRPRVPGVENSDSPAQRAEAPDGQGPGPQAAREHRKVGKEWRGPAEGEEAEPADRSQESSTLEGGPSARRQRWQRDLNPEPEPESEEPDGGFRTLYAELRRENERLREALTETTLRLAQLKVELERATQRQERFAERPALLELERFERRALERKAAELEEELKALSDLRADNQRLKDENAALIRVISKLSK
UniProt Q9BYW2: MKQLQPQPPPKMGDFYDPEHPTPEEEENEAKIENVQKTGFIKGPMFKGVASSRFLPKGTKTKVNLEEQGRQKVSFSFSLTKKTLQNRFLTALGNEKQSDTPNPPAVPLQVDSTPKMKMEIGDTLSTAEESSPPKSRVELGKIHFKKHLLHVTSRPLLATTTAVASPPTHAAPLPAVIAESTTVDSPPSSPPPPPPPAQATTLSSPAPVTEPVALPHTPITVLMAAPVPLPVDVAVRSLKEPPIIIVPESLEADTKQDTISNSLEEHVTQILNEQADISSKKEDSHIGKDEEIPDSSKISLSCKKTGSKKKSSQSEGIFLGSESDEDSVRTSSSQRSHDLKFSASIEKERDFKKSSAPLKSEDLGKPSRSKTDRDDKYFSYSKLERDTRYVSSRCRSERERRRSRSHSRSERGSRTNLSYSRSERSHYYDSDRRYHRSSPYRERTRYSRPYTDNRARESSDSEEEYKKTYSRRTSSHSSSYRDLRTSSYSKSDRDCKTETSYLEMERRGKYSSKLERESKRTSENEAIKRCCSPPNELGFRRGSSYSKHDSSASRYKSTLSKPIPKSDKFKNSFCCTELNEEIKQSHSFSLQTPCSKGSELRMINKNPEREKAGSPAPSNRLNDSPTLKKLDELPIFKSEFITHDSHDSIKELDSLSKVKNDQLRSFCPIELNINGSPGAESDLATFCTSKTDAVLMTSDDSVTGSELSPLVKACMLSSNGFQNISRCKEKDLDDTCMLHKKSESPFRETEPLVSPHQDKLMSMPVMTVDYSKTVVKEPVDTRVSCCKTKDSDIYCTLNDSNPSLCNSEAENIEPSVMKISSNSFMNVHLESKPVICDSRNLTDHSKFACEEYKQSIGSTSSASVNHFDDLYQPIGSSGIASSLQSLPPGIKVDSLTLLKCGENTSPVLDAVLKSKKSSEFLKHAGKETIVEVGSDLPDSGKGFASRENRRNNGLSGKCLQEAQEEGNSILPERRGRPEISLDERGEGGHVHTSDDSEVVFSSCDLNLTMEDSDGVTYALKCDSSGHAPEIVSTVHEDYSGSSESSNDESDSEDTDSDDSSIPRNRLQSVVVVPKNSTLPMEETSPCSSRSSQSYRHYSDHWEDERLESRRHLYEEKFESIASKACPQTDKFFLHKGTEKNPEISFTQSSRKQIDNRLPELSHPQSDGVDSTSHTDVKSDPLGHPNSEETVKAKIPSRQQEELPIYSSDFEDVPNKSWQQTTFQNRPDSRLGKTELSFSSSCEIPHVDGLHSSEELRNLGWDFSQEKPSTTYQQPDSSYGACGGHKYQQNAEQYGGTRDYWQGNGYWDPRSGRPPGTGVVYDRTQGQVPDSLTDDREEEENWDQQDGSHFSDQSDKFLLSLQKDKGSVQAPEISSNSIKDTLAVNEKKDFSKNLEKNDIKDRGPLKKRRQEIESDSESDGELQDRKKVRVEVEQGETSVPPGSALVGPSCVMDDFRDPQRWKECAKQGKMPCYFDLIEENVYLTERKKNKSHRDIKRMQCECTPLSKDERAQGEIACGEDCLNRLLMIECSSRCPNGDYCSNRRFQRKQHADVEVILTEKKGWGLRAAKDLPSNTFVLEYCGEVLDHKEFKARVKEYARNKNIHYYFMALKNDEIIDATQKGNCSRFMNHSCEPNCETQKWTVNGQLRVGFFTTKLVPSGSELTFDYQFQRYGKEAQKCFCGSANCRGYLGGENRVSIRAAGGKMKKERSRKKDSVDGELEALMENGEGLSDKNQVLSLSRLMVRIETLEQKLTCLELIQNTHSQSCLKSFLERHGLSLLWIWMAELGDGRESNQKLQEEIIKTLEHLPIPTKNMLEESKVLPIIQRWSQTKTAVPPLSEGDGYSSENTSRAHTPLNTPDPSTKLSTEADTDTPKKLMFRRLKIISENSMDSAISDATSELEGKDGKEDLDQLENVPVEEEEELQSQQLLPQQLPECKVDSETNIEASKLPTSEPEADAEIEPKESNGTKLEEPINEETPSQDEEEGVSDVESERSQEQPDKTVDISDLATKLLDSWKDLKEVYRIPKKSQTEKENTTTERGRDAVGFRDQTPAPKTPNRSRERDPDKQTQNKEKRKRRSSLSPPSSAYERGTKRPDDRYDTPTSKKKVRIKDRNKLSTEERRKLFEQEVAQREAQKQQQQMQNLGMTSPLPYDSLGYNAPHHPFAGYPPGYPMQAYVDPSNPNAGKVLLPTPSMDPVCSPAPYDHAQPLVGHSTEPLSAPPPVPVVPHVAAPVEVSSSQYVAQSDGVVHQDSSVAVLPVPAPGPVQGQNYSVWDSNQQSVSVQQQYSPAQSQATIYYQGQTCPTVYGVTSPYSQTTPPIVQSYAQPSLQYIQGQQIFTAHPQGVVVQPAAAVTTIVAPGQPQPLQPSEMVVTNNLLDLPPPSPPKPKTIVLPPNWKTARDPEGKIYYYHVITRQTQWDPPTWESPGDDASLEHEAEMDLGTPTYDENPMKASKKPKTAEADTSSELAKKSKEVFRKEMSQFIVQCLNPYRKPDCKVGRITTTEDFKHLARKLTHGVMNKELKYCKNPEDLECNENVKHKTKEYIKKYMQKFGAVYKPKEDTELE
UniProt Q9BWF3: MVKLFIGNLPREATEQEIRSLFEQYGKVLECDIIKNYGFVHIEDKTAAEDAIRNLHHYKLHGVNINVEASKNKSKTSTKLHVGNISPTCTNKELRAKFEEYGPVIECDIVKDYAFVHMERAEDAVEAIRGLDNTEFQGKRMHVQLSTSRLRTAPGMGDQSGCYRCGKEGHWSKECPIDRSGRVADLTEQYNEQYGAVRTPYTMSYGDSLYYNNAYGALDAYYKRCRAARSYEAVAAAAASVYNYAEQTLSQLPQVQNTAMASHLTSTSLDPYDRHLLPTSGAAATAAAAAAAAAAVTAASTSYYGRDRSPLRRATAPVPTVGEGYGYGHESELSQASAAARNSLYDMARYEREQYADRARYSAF
UniProt Q9BXW6, whole entry: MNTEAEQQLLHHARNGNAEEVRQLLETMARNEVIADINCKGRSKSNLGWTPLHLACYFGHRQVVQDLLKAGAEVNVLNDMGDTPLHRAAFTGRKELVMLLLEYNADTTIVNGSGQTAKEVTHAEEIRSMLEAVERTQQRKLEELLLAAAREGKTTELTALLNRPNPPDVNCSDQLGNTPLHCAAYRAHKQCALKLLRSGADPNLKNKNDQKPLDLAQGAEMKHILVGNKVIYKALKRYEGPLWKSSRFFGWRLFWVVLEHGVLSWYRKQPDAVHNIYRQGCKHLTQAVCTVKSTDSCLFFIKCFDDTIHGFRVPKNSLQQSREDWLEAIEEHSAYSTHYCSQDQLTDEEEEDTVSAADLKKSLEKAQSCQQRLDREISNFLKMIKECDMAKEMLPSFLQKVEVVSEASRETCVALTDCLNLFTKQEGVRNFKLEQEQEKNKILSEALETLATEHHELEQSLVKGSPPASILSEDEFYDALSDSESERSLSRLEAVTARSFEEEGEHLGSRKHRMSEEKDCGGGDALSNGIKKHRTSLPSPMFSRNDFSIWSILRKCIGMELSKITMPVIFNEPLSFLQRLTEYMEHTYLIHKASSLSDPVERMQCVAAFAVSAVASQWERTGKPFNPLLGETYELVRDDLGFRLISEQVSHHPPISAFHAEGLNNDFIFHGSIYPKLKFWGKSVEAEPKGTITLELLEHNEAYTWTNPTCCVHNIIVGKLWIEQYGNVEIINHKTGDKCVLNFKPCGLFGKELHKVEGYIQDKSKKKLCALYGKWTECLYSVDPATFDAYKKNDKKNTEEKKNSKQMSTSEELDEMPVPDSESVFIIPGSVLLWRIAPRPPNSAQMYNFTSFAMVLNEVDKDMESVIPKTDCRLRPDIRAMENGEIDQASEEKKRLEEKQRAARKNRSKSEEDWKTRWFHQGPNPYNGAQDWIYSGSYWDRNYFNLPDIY
UniProt Q9BZH6: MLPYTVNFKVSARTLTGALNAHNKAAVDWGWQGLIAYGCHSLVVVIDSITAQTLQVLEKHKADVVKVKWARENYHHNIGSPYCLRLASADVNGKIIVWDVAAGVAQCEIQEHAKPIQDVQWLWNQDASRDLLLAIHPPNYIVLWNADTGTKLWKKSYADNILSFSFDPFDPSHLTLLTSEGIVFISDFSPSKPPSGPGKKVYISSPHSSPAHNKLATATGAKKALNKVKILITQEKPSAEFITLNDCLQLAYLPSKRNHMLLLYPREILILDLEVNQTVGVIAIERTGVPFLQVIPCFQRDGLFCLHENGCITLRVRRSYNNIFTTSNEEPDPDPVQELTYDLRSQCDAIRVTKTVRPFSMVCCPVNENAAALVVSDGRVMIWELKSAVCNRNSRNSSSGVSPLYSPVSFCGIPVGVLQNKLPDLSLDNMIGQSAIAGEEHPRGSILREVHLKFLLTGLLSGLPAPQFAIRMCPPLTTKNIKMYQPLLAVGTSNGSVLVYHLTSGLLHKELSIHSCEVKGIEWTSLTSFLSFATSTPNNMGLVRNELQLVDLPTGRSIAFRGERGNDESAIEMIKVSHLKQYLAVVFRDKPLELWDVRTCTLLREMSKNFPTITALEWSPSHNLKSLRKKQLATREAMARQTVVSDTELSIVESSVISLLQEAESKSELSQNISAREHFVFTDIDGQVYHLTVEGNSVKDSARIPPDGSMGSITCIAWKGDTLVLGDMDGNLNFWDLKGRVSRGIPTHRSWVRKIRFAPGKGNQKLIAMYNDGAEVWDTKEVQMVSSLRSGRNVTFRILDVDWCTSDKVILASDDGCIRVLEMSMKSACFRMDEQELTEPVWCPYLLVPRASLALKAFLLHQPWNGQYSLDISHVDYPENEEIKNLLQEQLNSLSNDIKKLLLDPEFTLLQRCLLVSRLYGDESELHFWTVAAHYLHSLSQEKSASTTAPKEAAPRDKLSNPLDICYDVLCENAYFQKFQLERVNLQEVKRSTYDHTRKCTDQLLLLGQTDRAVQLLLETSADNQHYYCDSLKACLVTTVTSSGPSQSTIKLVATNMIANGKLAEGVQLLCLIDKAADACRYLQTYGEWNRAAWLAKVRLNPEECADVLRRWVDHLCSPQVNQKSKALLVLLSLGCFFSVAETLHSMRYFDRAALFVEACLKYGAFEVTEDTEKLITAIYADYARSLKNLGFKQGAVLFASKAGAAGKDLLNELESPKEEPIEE

The list shows a part of the results. Most entries show no effect beyond the scatter of the controls.

Compound in the test: Cc1nc(Nc2ncc(C(=O)Nc3c(C)cccc3Cl)s2)cc(N2CCN(CCO)CC2)n1 [dasatinib]
The experiment in a line: log2 fold change of tryptic peptide abundance, ligand vs vehicle (limited proteolysis) (log2 ratio); higher = more trypsin-susceptible (destabilized). The conditions noted are these: ligand concentration: 5 uM; sample: K562 cleared lysate.
“NPL (peptide sequence: QVAEEWVTK, peptide start residue: 65) (UniProt Q9BXD5)”: the log2 fold change is 0.638.
Under “SNRNP25 (peptide sequence: TYHLTSAGEK, peptide start residue: 95) (UniProt Q9BV90)” stands -0.123.
To “UniProt Q9BZQ8 (peptide sequence: LMNLPLHSVK, peptide start residue: 396)” belongs -0.574.
Under “PRKD2 (peptide sequence: STTELLPR, peptide start residue: 225) (UniProt Q9BZL6)” stands -0.0949.
For the target “MIS12 (peptide sequence: QALLAELEEQKIVQAK, peptide start residue: 136) (UniProt Q9H081)”, the log2 fold change worked out at 0.284.
To “UniProt Q9BYB0 (peptide sequence: GRAGKFLDEER, peptide start residue: 62)” belongs 0.169; to “RACGAP1 (peptide sequence: NLFEQLVR, peptide start residue: 10) (UniProt Q9H0H5)”, -0.146.
As for “TIPIN (peptide sequence: SLTEEQQQR, peptide start residue: 194) (UniProt Q9BVW5)”, the log2 fold change is 0.124.
Under “UTP14A (peptide sequence: KVNPAAALEELEKIEK, peptide start residue: 273) (UniProt Q9BVJ6)” stands -0.396; under “PPP1R12C (peptide sequence: DGDGWTPLHAAAHWGVEDACR, peptide start residue: 257) (UniProt Q9BZL4)”, 0.667.
To “XPO4 (peptide sequence: SKSPFAVCK, peptide start residue: 47) (UniProt Q9C0E2)” belongs 0.28.
To “WDR12 (peptide sequence: VFNCISYSPLCKR, peptide start residue: 299) (UniProt Q9GZL7)” belongs 0.437.
In the case of “MFF (peptide sequence: SMSENAVR, peptide start residue: 155) (UniProt Q9GZY8)”, the log2 fold change was -0.0915.
Under “C1orf50 (peptide sequence: LTVIAEQIQHLQEQAR, peptide start residue: 78) (UniProt Q9BV19)” stands 0.153.
Under “RAB11FIP5 (peptide sequence: TYSDEANQMR, peptide start residue: 305) (UniProt Q9BXF6)” stands -0.163; under “SETD2 (peptide sequence: NIHYYFMALKNDEIIDATQK, peptide start residue: 1601) (UniProt Q9BYW2)”, 0.417.
To “RBM4 (peptide sequence: MHVQLSTSR, peptide start residue: 141) (UniProt Q9BWF3)” belongs 0.326.
Consider “UniProt Q9BVG3 (peptide sequence: TFAEPALAPSLK, peptide start residue: 56)”, for which the log2 fold change amounted to 0.119.
As for “RSRP1 (peptide sequence: GIGVSSNGAKPELSEK, peptide start residue: 213) (UniProt Q9BUV0)”, the log2 fold change amounted to 0.386.
To “OSBPL1A (peptide sequence: VEGYIQDK, peptide start residue: 756) (UniProt Q9BXW6)” belongs -0.0689; to “NDEL1 (peptide sequence: SGHTSFFDK, peptide start residue: 306) (UniProt Q9GZM8)”, -0.345; to “UniProt Q9GZT3 (peptide sequence: SINQPVAFVR, peptide start residue: 15)”, 0.141.
Under “CINP (peptide sequence: DKIELDSSSPASKENEEK, peptide start residue: 62) (UniProt Q9BW66)” stands 0.634; under “KLF16 (peptide sequence: FSCPLCSK, peptide start residue: 187) (UniProt Q9BXK1)”, -0.199; under “WDR11 (peptide sequence: STYDHTRKCTDQLLLLGQTDR, peptide start residue: 992) (UniProt Q9BZH6)”, -0.33.
Under “UniProt Q9BXS1 (peptide sequence: NCHLNENIEK, peptide start residue: 38)” stands -0.0217; under “UniProt Q9GZP4 (peptide sequence: HEVTICNYEASANPADHR, peptide start residue: 182)”, 0.165.
